PubChem BioAssay AID1224828 | NIAID | 2016
Aim: 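Find genes required for NF-kappaB p65 moving into the nucleus after LPS in mouse macrophages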 (primary screen). Cell system: mouse RAW264.7 G9 macrophage reporter cells (GFP-p65, Tnf promoter-mCherry). Reagent: siRNA pool against mouse genes, 100 nM. Time to read-out: 2 days siRNA transfection, then 40 min LPS before fixation. Treatment: LPS (Salmonella minnesota R595) at 10 ng/ml. Measured: 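Imaged p65 nuclear translocation ratio, normalised to the plate median, converted to robust z-scores and averaged across two replicates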. Direction: p65 translocation robust z-score: higher = more nuclear NF-kappaB p65 after LPS than the plate median; nuclear/cytoplasmic p65 ratio: higher = more nuclear NF-kappaB p65. Call rule: 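Active if robust z is above 3.3 (negative regulators) or below -1.56, the Tlr4 control median (positive regulators); activity score 50 or more; control wells not called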. Meaning of the calls: active = hit (p65 shift raised or lowered); inactive = no clear change.
Shown is a random part of about 17,000 deposited reagents. 762 of all reagents (4.5%) were called active. 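Active calls include both raised and lowered p65 entry, mostly lowered; wells with fewer than 50 cells lack a z-score.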 Raw values vary from plate to plate and are shown uncorrected. Reagents against one gene are numbered here.

| gene | reagent no. | p65 translocation robust z-score | nuclear/cytoplasmic p65 ratio, rep 1 | nuclear/cytoplasmic p65 ratio, rep 2 | low cell count flag | activity call |
| --- | --- | --- | --- | --- | --- | --- |
| Ift122 | 1 | 0.69 | 1.63 | 1.68 | enough cells to score | inactive |
| Tacc3 | 1 | -0.35 | 1.49 | 1.48 | enough cells to score | inactive |
| Cyp19a1 | 1 | 1.32 | 1.73 | 1.48 | enough cells to score | inactive |
| Ap3d1 | 1 | -0.25 | 1.22 | 1.67 | enough cells to score | inactive |
| Gabrb3 | 1 | -0.28 | 1.43 | 1.31 | enough cells to score | inactive |
| Ott | 1 | – | 1.35 | 1.01 | fewer than 50 cells per well; well left out of scoring | inactive |
| A030005K14Rik | 1 | -1.22 | 1.18 | 1.4 | enough cells to score | inactive |
| S100a16 | 1 | -0.96 | 1.24 | 1.15 | enough cells to score | inactive |
| Slamf9 | 1 | 1.3 | 1.64 | 1.35 | enough cells to score | inactive |
| Tbc1d15 | 1 | – | 1.72 | 1.3 | fewer than 50 cells per well; well left out of scoring | inactive |
| Ptgds | 1 | -0.82 | 1.35 | 1.34 | enough cells to score | inactive |
| Lacc1 | 1 | -1.38 | 1.31 | 1.28 | enough cells to score | inactive |
| Cfap74 | 1 | – | 1 | 1.47 | fewer than 50 cells per well; well left out of scoring | inactive |
| BC048671 | 1 | 2.08 | 1.78 | 1.74 | enough cells to score | inactive |
| Spata3 | 1 | 0.29 | 1.64 | 1.67 | enough cells to score | inactive |
| Ctla2a | 1 | 0.18 | 1.61 | 1.8 | enough cells to score | inactive |
| Gcfc2 | 1 | 0.11 | 1.58 | 1.57 | enough cells to score | inactive |
| Or8k23 | 1 | -0.36 | 1.64 | 1.49 | enough cells to score | inactive |
| Wiz | 1 | 0.24 | 1.4 | 1.28 | enough cells to score | inactive |
| Nkx1-2 | 1 | 0.03 | 1.48 | 1.74 | enough cells to score | inactive |
| Aqp12 | 1 | 1.1 | 1.6 | 2.03 | enough cells to score | inactive |
| Plcb4 | 1 | -0.06 | 1.52 | 1.37 | enough cells to score | inactive |
| Stfa3 | 1 | 0.92 | 1.6 | 1.29 | enough cells to score | inactive |
| Ddx51 | 1 | – | 1.37 | 1.29 | fewer than 50 cells per well; well left out of scoring | inactive |
| Naga | 1 | -0.7 | 1.36 | 1.24 | enough cells to score | inactive |
| Elfn2 | 1 | – | 1.25 | 1.34 | fewer than 50 cells per well; well left out of scoring | inactive |
| Bcat1 | 1 | 0.86 | 1.79 | 1.7 | enough cells to score | inactive |
| Smc3 | 1 | -1.29 | 1.4 | 1.56 | enough cells to score | inactive |
| Fam177a | 1 | -1.23 | 1.34 | 1.26 | enough cells to score | inactive |
| Pde10a | 1 | 0.21 | 1.53 | 1.22 | enough cells to score | inactive |
| Ube2g1 | 1 | 0.66 | 1.64 | 1.56 | enough cells to score | inactive |
| Fsd1 | 1 | -2.38 | 1.31 | 1.23 | enough cells to score | active |
| Zfp775 | 1 | – | 0.914 | 0 | fewer than 50 cells per well; well left out of scoring | inactive |
| Rab11b | 1 | -1.3 | 1.34 | 1.38 | enough cells to score | inactive |
| Rab11b | 2 | -0.08 | 1.55 | 1.52 | enough cells to score | inactive |
| Ldlrap1 | 1 | 1.27 | 1.77 | 1.84 | enough cells to score | inactive |
| Krt32 | 1 | 0.61 | 1.62 | 1.53 | enough cells to score | inactive |
| Or8k3 | 1 | 1.47 | 1.93 | 1.75 | enough cells to score | inactive |
| Cmtm2b | 1 | 0.92 | 1.71 | 1.96 | enough cells to score | inactive |
| Enpep | 1 | 0.54 | 1.51 | 1.46 | enough cells to score | inactive |
| Or4b1c | 1 | 0.72 | 1.66 | 1.56 | enough cells to score | inactive |
| Ngrn | 1 | -0.78 | 1.46 | 1.42 | enough cells to score | inactive |
| Mmp24 | 1 | 0.48 | 1.52 | 1.39 | enough cells to score | inactive |
| Tiam2 | 1 | -0.21 | 1.39 | 1.13 | enough cells to score | inactive |
| Caps2 | 1 | -0.38 | 1.54 | 1.74 | enough cells to score | inactive |
| Dsg2 | 1 | – | 1.52 | 1.26 | fewer than 50 cells per well; well left out of scoring | inactive |
| Cckbr | 1 | -1.16 | 1.35 | 1.19 | enough cells to score | inactive |
| Mrps33 | 1 | -0.02 | 1.85 | 1.53 | enough cells to score | inactive |
| Scgb2b26 | 1 | 0.14 | 1.62 | 1.71 | enough cells to score | inactive |
| Scgb2b26 | 2 | 0.56 | 1.55 | 1.56 | enough cells to score | inactive |
| Mark4 | 1 | 0.45 | 1.72 | 1.46 | enough cells to score | inactive |
| Prl3d3 | 1 | -0.56 | 1.3 | 1.19 | enough cells to score | inactive |
| Angptl4 | 1 | -0.65 | 1.56 | 1.49 | enough cells to score | inactive |
| Cpeb1 | 1 | -0.18 | 1.42 | 1.9 | enough cells to score | inactive |
| Vmn1r219 | 1 | – | 1.27 | 1.36 | fewer than 50 cells per well; well left out of scoring | inactive |
| Rtn4 | 1 | 1.04 | 1.56 | 1.25 | enough cells to score | inactive |
| Rab39b | 1 | -0.25 | 1.36 | 1.17 | enough cells to score | inactive |
| Nt5c2 | 1 | 0.96 | 1.98 | 1.57 | enough cells to score | inactive |
| Ypel3 | 1 | -0.12 | 1.45 | 1.51 | enough cells to score | inactive |

Part of the list above, reduced to “nuclear/cytoplasmic p65 ratio, rep 2”.
S100a16: 1.15
Slamf9: 1.35
Tbc1d15: 1.3
